A short description of this test: qHTS Assay for Lipid Storage Modulators in Drosophila S3 Cells.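 As to cell number change: cells counted by Cell Tracker Red CMTPX staining in the red channel.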 Particulars: BODIPY lipid droplet fluorescence, 18-24 h; for cell number change: measured here: cell count max response, cells fed with added oleic acid. The procedure, abridged:
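Drosophila S3 cells got compounds at several concentrations plus oleic acid (400 uM solution). Laser-scanning cytometry with 488 nm excitation read lipid droplets at 500-530 nm and cells at 575-640 nm. Percent activity was relative to 20 uM Triacsin C.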
In general terms: In qHTS, concentration-response curves come from the screen itself.

Where [1] appears, read: measured here: lipid fluorescence (Fed channel) AC50, cells fed with added oleic acid.
Setting [2] is: measured here: cell number channel AC50, cells fed with added oleic acid.

The other results are listed elsewhere or left out. Shown are side measurements of this screen, not its main read-out; they come without a call. The list favours compounds with an active or inconclusive main result. Potencies come from curve fits of mixed quality, noted in brackets.

The term AC50 denotes the midpoint of the concentration-response curve, whichever way the signal moves. A high value points to weaker potency.

Take `CCN(c1ccc(NC(=O)COC(=O)/C=C/c2cccs2)cc1)C(C)C`: the cell number change was -10.4%. Also, the AC50 under setting [1] is 16.4 µM [falling, single point].

On to `COC(=O)c1ccc(C(=O)OC)c(NC(=O)CN(c2ccccc2)S(=O)(=O)N(C)C)c1`, for which the cell number change came out at 2.77%. Further, the AC50 under setting [1] was 0.116 µM [rising, full curve].

`O=C(c1ccc(CS(=O)(=O)c2ccccc2)o1)N1CCN(c2ncccn2)CC1`: the cell number change came out at 3.25%. Under setting [1], the AC50 is 0.13 µM [falling, full curve, poor fit].

As for `COc1ccc(C(=O)Nc2ccccc2C(=O)NCc2cccnc2)cc1`, the cell number change was -32.2%. The AC50 under setting [1] was 29.1 µM [rising, single point].

On to `CC1=NOC2(C1)N(C)c1ccccc1C2(C)C` (stereo unspecified), for which the cell number change was -0.768%. Moreover, under setting [1], the AC50 was 1.03 µM [falling, full curve, poor fit].

As to `CCOc1ccccc1CNC(=O)C1CCCN(c2nnc(C)c3c(C)n(-c4ccccc4)nc23)C1` (stereo unspecified), the cell number change came out at 20.6%. Further, the AC50 under setting [1] is 0.13 µM [rising, full curve, poor fit].

`COCCCN(C(=O)CSCC(=O)Nc1cccc(C)c1)c1c(N)n(Cc2ccccc2)c(=O)[nH]c1=O`: the cell number change was found to be 4.07%.

Regarding `CCNC(=O)c1sc2cc(C)ccc2c1Cl`, the cell number change is 6.85%. Under setting [1], the AC50 is 2.59 µM [falling, single point].

Regarding `COc1ccc(OC)c(S(=O)(=O)n2cnc3ccccc32)c1`, the cell number change was found to be 3.16%. Under setting [1], the AC50 was 0.731 µM [rising, full curve].

Turning to `Cc1ccc(-c2nc3ccccc3c(=O)n2Cc2ccccc2)cc1`, the cell number change is -6.41%. For the same molecule, the AC50 under setting [1] is 14.6 µM [falling, single point].

In the case of `Cc1ccc(C(=O)Nc2cc([N+](=O)[O-])ccc2F)s1`, the cell number change is 6.78%. Besides, the AC50 under setting [1] is 0.103 µM [rising, full curve, poor fit].

Consider `Cn1cccc1CC(=O)N/N=C\c1c2ccccc2cc2ccccc12`, for which the cell number change is -36.9%. Also, the AC50 under setting [2] was 29.1 µM [falling, single point]. Also, the AC50 under setting [1] was 0.146 µM [falling, full curve, poor fit].

For `C(=N\c1nc2ccccc2n1CCN1CCCCC1)/c1cccs1`, the cell number change is -35.9%. The AC50 under setting [2] was 20.6 µM [falling, single point].

Regarding `Cc1ccc2[nH]cc(S(=O)(=O)c3ccc(F)cc3)c(=O)c2c1`, the cell number change worked out at 0.901%. The AC50 under setting [1] was 29.1 µM [rising, single point].

For `CN(C)c1ccc(S(=O)(=O)NCC(=O)NCCOc2ccccc2F)cc1[N+](=O)[O-]`, the cell number change was 111%. Further, the AC50 under setting [2] was 18.4 µM [rising, single point].

As for `O=C(CCCOc1ccc(Cl)cc1Cl)NN1CCOCC1`, the cell number change is 5.55%. For the same molecule, the AC50 under setting [1] is 7.31 µM [falling, single point].

Consider `O=C(C1=C(O)C(=O)N(CCN2CCOCC2)C1c1cccc([N+](=O)[O-])c1)c1cccs1` (stereo unspecified), for which the cell number change was 2.72%. In addition, under setting [1], the AC50 is 25.9 µM [falling, single point].

Regarding `CCOCCCn1c(SCC(=O)NC(C)C)nc2ccccc2c1=O`, the cell number change is -3.79%. For the same molecule, under setting [2], the AC50 is 0.92 µM [rising, full curve].

On to `O=[N+]([O-])c1cccc(S(=O)(=O)NCCc2cccs2)c1`, for which the cell number change was -4.76%.

For `CCCc1cc(C(=O)NCc2ccccc2)no1`, the cell number change was 34.8%. Moreover, under setting [2], the AC50 was 1.84 µM [rising, full curve, poor fit].

For the molecule `CN1CCN(C(=O)c2ccc3c(c2)N(Cc2cccc(Cl)c2)C(=O)c2ccccc2S3(=O)=O)CC1`, the cell number change was determined as 37.1%. In addition, the AC50 under setting [2] is 29.1 µM [rising, single point].

Take `COc1ccccc1CNC(=O)CN1C(=O)c2ccccc2S1(=O)=O`: the cell number change is 17.8%.

As to `CCC(c1nc2ccccc2c(=O)n1CCCn1ccnc1)N1C(=O)c2ccccc2C1=O` (stereo unspecified), the AC50 under setting [2] is 0.259 µM [rising, full curve, poor fit].

For `CSCC[C@H](NC(=O)N1CCn2c1nc1ccccc12)C(=O)NCc1ccccc1`, the cell number change is -2.02%. Moreover, the AC50 under setting [1] is 29.1 µM [falling, single point].

`C/C(=N\Nc1ccc(S(=O)(=O)N2CCCCC2)cn1)c1ccc(O)cc1`: the cell number change was -1.87%. Also, the AC50 under setting [1] was 0.231 µM [rising, full curve, poor fit].

On to `O=C(COC(=O)[C@@H]1CCCN1S(=O)(=O)c1ccccc1F)Nc1ccc(OC(F)F)cc1`, for which the cell number change was 66%. The AC50 under setting [2] was 29.1 µM [rising, single point]. Also, under setting [1], the AC50 is 6.51 µM [falling, single point].

For the molecule `CCOc1ccc(C2C(C#N)=C(N)Oc3cc(C)n(CCN4CCOCC4)c(=O)c32)cc1OCC` (stereo unspecified), the cell number change worked out at 3.69%. Also, under setting [1], the AC50 was 0.164 µM [rising, full curve, poor fit].

Consider `COc1ccc(/C=N/NC(=O)c2ccc(Cl)cc2)cc1COC(C)=O`, for which the cell number change turned out to be 8.42%. Further, under setting [1], the AC50 was 0.82 µM [rising, full curve, poor fit].

For the molecule `S=C(NCc1ccccn1)Nc1ccc(Br)cc1Cl`, the cell number change was determined as 6.88%.

With `CCCCn1c(SCC(=O)NCc2ccco2)nc2ccc(N3CCOCC3)cc2c1=O`, the AC50 under setting [1] was 0.58 µM [rising, single point].

Take `Cc1cc(C)c(C#N)c(SCc2ccccc2C)n1`: the cell number change is 20.3%. Besides, the AC50 under setting [2] is 1.84 µM [rising, partial curve, poor fit]. For the same molecule, the AC50 under setting [1] is 5.17 µM [rising, full curve].

Take `CCCn1c(COc2ccccc2OC)nc2ccccc21`: the cell number change was -30.3%. In addition, under setting [2], the AC50 is 5.8 µM [falling, partial curve].

With `O=C(OCC(=O)c1ccccc1Br)c1ccccn1`, the cell number change was -18.9%. The AC50 under setting [2] was 0.0651 µM [falling, full curve, poor fit]. Further, the AC50 under setting [1] was 0.146 µM [falling, full curve, poor fit].

Consider `O=C(CC(CC(=O)c1ccc(Br)cc1)c1cccnc1)c1ccc(Br)cc1`, for which the cell number change was -6.91%. The AC50 under setting [1] was 0.731 µM [rising, partial curve, poor fit].

Consider `O=C(Nc1cc(N2CCOCC2)ncn1)Nc1cccc2ccccc12`, for which the cell number change is -14%.

For `Cc1c(Br)c([N+](=O)[O-])nn1CC(=O)Nc1ccc(Cc2ccncc2)cc1`, the cell number change is -31.2%. Also, the AC50 under setting [1] was 20.6 µM [falling, partial curve, poor fit].

For `COc1cc(C(=O)Nc2nc(N)n(-c3ccccc3)n2)cc(OC)c1OC`, the cell number change amounted to 8.43%. The AC50 under setting [1] was 6.51 µM [rising, single point].

`O=C(CN1CCOCC1)N1CCN(S(=O)(=O)c2ccccc2)C1c1ccccc1` (stereo unspecified): the AC50 by setting is: under setting [2], 3.66 µM [falling, single point]; under setting [1], 2.06 µM [rising, partial curve].

With `CCCCOc1ccc(C2(C(=O)O)CCCC2)cc1`, the cell number change came to 3.38%. Also, under setting [1], the AC50 is 29.1 µM [falling, single point].

In the case of `COc1ccc(-c2c(C)nn3c(N4CCC5(CC4)OCCO5)cc(C)nc23)cc1OC`, the AC50 under setting [2] is 0.461 µM [rising, partial curve, poor fit] and the AC50 under setting [1] is 0.0164 µM [rising, full curve, poor fit].

As for `O=C(NN1CCOCC1)c1sc2cccc(F)c2c1Cl`, the cell number change is 1.67%. The AC50 under setting [1] was 6.51 µM [falling, single point].

Regarding `CCOc1ccc(OCc2nnc(SCC(=O)NC3CCS(=O)(=O)C3)n2-c2ccc(Cl)cc2)cc1` (stereo unspecified), the cell number change is -55%. In addition, the AC50 under setting [2] was 29.1 µM [falling, single point]. For the same molecule, the AC50 under setting [1] is 29.1 µM [falling, single point].

Regarding `O=C(N/N=C/c1ccncc1)c1cccc(N/N=C/c2ccncc2)c1`, the cell number change was 26.6%. In addition, under setting [1], the AC50 was 29.1 µM [rising, partial curve].

`CCCCn1c(N)c(N(CC(C)C)C(=O)c2cccc(-n3cnnn3)c2)c(=O)[nH]c1=O`: the cell number change is -29.9%. Besides, the AC50 under setting [1] is 18.4 µM [falling, partial curve, poor fit].

Regarding `O=C(NCc1nc2ccccc2[nH]1)c1ccco1`, the cell number change is 4.03%. Under setting [1], the AC50 is 0.58 µM [falling, full curve].

With `CC1CCN(S(=O)(=O)N2CCC(C(=O)N3CCC(N(C)CC4CCCO4)CC3)CC2)CC1` (stereo unspecified), the cell number change came to 8.13%. Also, the AC50 under setting [1] was 4.11 µM [rising, single point].

Consider `O=[N+]([O-])/C=C/c1cc2ccccc2[nH]1`, for which the cell number change was -34.7%. Also, the AC50 under setting [2] is 11.6 µM [falling, partial curve]. For the same molecule, under setting [1], the AC50 was 9.2 µM [falling, partial curve].

As to `O=C(CCCc1c[nH]c2ccccc12)N1CCN(S(=O)(=O)c2cccs2)CC1`, the cell number change worked out at 0.632%. Also, under setting [2], the AC50 was 1.64 µM [rising, partial curve, poor fit]. The AC50 under setting [1] was 1.64 µM [rising, partial curve].

`CCc1ccc(/C=C(/C#N)C(N)=S)s1`: the cell number change is 22%.

Regarding `COC(=O)CCCNC(=O)OCc1ccc([N+](=O)[O-])cc1`, the cell number change worked out at 80.6%. Further, under setting [2], the half-maximal activity concentration (AC50) was 18.4 µM [rising, single point].

For the molecule `Cc1ccc(NCc2nc3ccccc3n2C)cc1C`, the cell number change was -12%. In addition, the AC50 under setting [1] was 5.8 µM [rising, single point].

Consider `CC(C)c1ccc(NC(=O)COC(=O)C2CCCCC2)cc1`, for which the cell number change turned out to be 8.96%. Further, under setting [1], the AC50 is 32.6 µM [rising, single point].

Regarding `COc1cc(NC(=O)COc2ccc(Br)cc2)ccc1NC(=O)C(C)C`, the cell number change was -47.4%. Moreover, the AC50 under setting [2] is 29.1 µM [falling, single point].

As for `CCOc1ccc(OCC(=O)NCCS(=O)(=O)N2CCN(c3ccc(F)cc3)CC2)cc1`, the cell number change amounted to 8.87%. Under setting [1], the AC50 was 23.1 µM [rising, partial curve, poor fit].

As for `CCOC(=O)/C(N=Nc1ccc2c(c1)OCO2)=C(\C)O`, the cell number change is -8.04%.

Turning to `CCCc1cc(C(=O)N(C)CC(=O)Nc2ccc(OCC)c(OCC)c2)sc1C`, under setting [2], the AC50 is 1.64 µM [rising, partial curve, poor fit].

In the case of `CC1=NNC(=O)C1Oc1ccccc1` (stereo unspecified), the cell number change stood at 16.8%. Under setting [1], the AC50 was 6.51 µM [falling, single point].

Turning to `Cc1ccc(-c2nc(N)n(C(=O)c3cccnc3)n2)cc1`, the cell number change worked out at 74.5%. Also, under setting [2], the AC50 is 16.4 µM [rising, single point]. Moreover, the AC50 under setting [1] was 0.206 µM [rising, full curve, poor fit].

As for `CCOc1ccc(NC(=O)CC2C(=O)Nc3ccccc3N2C(=O)c2ccccc2)cc1` (stereo unspecified), the cell number change turned out to be 17.1%. The AC50 under setting [1] was 0.00461 µM [rising, full curve, poor fit].

Source of the values: PubChem BioAssay AID2685 (National Center for Advancing Translational Sciences (NCATS), 2010).
